Source: patent US20260209286A1, “SEA CUCUMBER-DERIVED HOLOTOCIN PEPTIDE AND USES THEREOF” (NATIONAL MARINE BIODIVERSITY INSTITUTE OF KOREA, priority 2022, published 2026)
Part of at least one peptide drawing is inferred or uncertain, most often the ends. Where a SMILES comes first, the peptide text is derived from it. Bridges are numbered along the chain shown (N, C = ends).

Tests used:
SOX-2 protein = test: Immunofluorescence of SOX-2 protein in HaCaT skin cells; type: cell-based; settings: 1 μM, 24 hours
sea cucumbers = settings: cited from earlier work
AQP3 = AQP3 expression in HaCaT skin cells by PCR, immunofluorescence and Western blot; type: cell-based; settings: 1 μM, 24 hours, immunofluorescence, Western blot
kidney cell line 293T = test: Size of stem cell spheroids formed in 293T cells; type: cell-based; settings: cultured 10 days
Procedure: (§1) For the formation of spheroids, the cells prepared in Preparation Example 2 were cultured in Aggrewell 800 plates pretreated with an anti-Adherence rinsing solution, using a DMEM-F12 medium containing a stem cell-permissive medium supplemented with 20 ng/ml EGF, 20 ng/ml basic fibroblast growth factor (bFGf), and B27 Serum-free Supplement (50×; Invitrogen).
(§2) After the culture period, the spheroids were observed under a microscope, and approximately 25 spheroids were measured.
(§3) Specifically, FIGS. 5 to 8 show the results of adding the peptides prepared in Preparation Example 1 to the renal cell line 293T, and FIGS. 9 to 12 show the results of adding the same peptides to the epidermal keratinocytes HaCaT.

[1] = system: epidermal keratinocytes HaCaT; test: Size of stem cell spheroids formed in HaCaT cells; type: cell-based; settings: cultured 10 days
Procedure: as §1, §2, §3

Sox2 = test: RT-PCR of regeneration-related gene Sox2 in HaCaT skin cells; type: cell-based; settings: 1 μM, 24 hours
Oct4 = test: RT-PCR of regeneration-related gene Oct4 in HaCaT skin cells; type: cell-based; settings: 1 μM, 24 hours

## CC[C@H](C)[C@@H]1NC(=O)[C@H](Cc2ccccc2)NC(=O)[C@@H](N)CSSC[C@@H](C(=O)N2CCC[C@H]2C(=O)N[C@@H](CC(C)C)C(=O)NCC(N)=O)NC(=O)[C@H](CC(N)=O)NC(=O)[C@H]([C@@H](C)O)NC1=O [Holotocin(HLT), Holotocin] (H-CFITNCPLG-NH2; disulfide 1-6)
SOX-2 protein
  expression of the SOX-2 protein: increased expression
Sea cucumbers; long-term injection into sea cucumbers
  effect of long-term injection on body mass: reduction in body mass
Sea cucumbers; short-term injection into sea cucumbers
  effect of short-term injection on the body: causes body swelling
AQP3
  expression of the AQP3 gene: slightly higher expression
Kidney cell line 293T; 0.1 μM
  size of the stem cell spheroids compared to the control group: 118.4%
Kidney cell line 293T; 1 μM
  size of the stem cell spheroids compared to the control group: 124.3%
Kidney cell line 293T; 10 μM
  size of the stem cell spheroids compared to the control group: 121.4%
[1]; 0.1 μM
  size of the stem cell spheroids compared to the control group: 117.5%
[1]; 1 μM
  size of the stem cell spheroids compared to the control group: 122.1%
[1]; 10 μM
  size of the stem cell spheroids compared to the control group: 108.7%
Sox2
  expression of stemness-related gene Sox2: induced the expression
Oct4
  expression of stemness-related gene Oct4: induced the expression
